Measured values: paper PMC11999606, “Dynein light chains 1 and 2 are auxiliary proteins of pH-sensitive Kir4.1 channels” (The Journal of Biological Chemistry, 2025)
No constants are given. Whether binding was seen depends on the method and setting. Some results given as binding are weak or reduced against the parent protein; the word gives no strength. Tags and fused reporters may be left off the sequences shown.

Target: full-length Kir4.1, N-terminal tags cleaved off (UniProt P78508)
Experiment: cryo-EM structure; single-particle cryo-EM of purified full-length Kir4.1 (with copurified LC8) supplemented with diC8 PIP2; maps at 6.69 Å and 6.93 Å; rigid body fit only; both purified

binding: binds
B1: full-length Kir4.1, N-terminal tags cleaved off (natural protein, UniProt P78508 1-379, looked up)
chain: MTSVAKVYYSQTTQTESRPLMGPGIRRRRVLTKDGRSNVRMEHIADKRFLYLKDLWTTFIDMQWRYKLLLFSATFAGTWFLFGVVWYLVAVAHGDLLELDPPANHTPCVVQVHTLTGAFLFSLESQTTIGYGFRYISEECPLAIVLLIAQLVLTTILEIFITGTFLAKIARPKKRAETIRFSQHAVVASHNGKPCLMIRVANMRKSLLIGCQVTGKLLQTHQTKEGENIRLNQVNVTFQVDTASDSPFLILPLTFYHVVDETSPLKDLPLRSGEGDFELVLILSGTVESTSATCQVRTSYLPEEILWGYEFTPAISLSASGKYIADFSLFDQVVKVASPSGLRDSTVRYGDPEKLKLEESLREQAEKEGSALSVRISNV
notes: Kir4.1 (KCNJ10) inwardly rectifying potassium channel, full length; Purified as a tetramer that carries copurified endogenous LC8; also called KCNJ10; Kir4.1 WT; source: purified (FLAG resin, eluted by HRV 3C cleavage, Superose 6 SEC); not shown: FLAG, N-terminal, cleaved; GFP, N-terminal, cleaved
